From paper PMC5776122
No constants are given. Whether binding was seen depends on the method and setting. In cells and extracts the contact can be indirect. A yes stands for co-enrichment or nearness to the bait. Other partners may have been found.

Target: His-tagged full length DENV2 capsid (purified) (Dengue virus serotype 2)
Experiment: affinity purification with mass spectrometry; 2 mg purified His-capsid added in solution to 5 mg pre-cleared Huh-7 lysate, 4°C 2 h, captured on Ni-NTA beads, washed with 50 mM imidazole, eluted with 100 and 250 mM imidazole, LC MS/MS; 5% false-discovery rate, minimum 2 peptides per protein; only the target purified

B1: Pyrroline-5-carboxylate reductase 2 (protein, UniProt Q96C36 1-320)
chain: MSVGFIGAGQLAYALARGFTAAGILSAHKIIASSPEMNLPTVSALRKMGVNLTRSNKETVKHSDVLFLAVKPHIIPFILDEIGADVQARHIVVSCAAGVTISSVEKKLMAFQPAPKVIRCMTNTPVVVQEGATVYATGTHALVEDGQLLEQLMSSVGFCTEVEEDLIDAVTGLSGSGPAYAFMALDALADGGVKMGLPRRLAIQLGAQALLGAAKMLLDSEQHPCQLKDNVCSPGGATIHALHFLESGGFRSLLINAVEASCIRTRELQSMADQEKISPAALKKTLLDRVKLESPTVSTLTPSSPGKLLTRSLALGGKKD
binding: binds

B2: Heterogeneous nuclear ribonucleoprotein A0 (protein, UniProt Q13151 1-305)
chain: MENSQLCKLFIGGLNVQTSESGLRGHFEAFGTLTDCVVVVNPQTKRSRCFGFVTYSNVEEADAAMAASPHAVDGNTVELKRAVSREDSARPGAHAKVKKLFVGGLKGDVAEGDLIEHFSQFGTVEKAEIIADKQSGKKRGFGFVYFQNHDAADKAAVVKFHPIQGHRVEVKKAVPKEDIYSGGGGGGSRSSRGGRGGRGRGGGRDQNGLSKGGGGGYNSYGGYGGGGGGGYNAYGGGGGGSSYGGSDYGNGFGGFGSYSQHQSSYGPMKSGGGGGGGGSSWGGRSNSGPYRGGYGGGGGYGGSSF
binding: binds
